# In PubChem BioAssay AID2551 (National Center for Advancing Translational Sciences (NCATS), 2010):
# Chains of the proteins cited; added tags and fusions are not shown. Lines headed by an entry give the natural chain unless they say otherwise; changes in a name come on top.
# UniProt P51450: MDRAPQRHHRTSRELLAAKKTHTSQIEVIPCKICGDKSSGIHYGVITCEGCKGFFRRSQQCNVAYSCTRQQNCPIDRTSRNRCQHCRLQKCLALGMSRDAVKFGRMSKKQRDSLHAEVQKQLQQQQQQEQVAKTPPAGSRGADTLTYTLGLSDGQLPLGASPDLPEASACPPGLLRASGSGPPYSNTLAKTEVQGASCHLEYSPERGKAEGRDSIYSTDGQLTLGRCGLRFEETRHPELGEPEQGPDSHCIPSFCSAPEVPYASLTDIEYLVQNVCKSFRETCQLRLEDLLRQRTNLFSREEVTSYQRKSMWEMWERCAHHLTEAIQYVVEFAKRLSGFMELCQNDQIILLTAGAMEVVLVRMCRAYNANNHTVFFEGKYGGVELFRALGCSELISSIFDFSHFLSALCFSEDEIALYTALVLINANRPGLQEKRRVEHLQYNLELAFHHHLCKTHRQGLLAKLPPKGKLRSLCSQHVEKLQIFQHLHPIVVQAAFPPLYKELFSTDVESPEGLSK
# Among all 310,000 compounds or so, about 17,000 (5.5%) were called active. This list was built around the results that the source calls inconclusive (neither active nor inactive); the mix of calls is not that of the screen. Calls follow the shape of the dose curve; as a rule, active = well fitted inhibition curve with a large enough effect; inconclusive = small, poorly fitted or top-dose-only effect, or effect the other way; inactive = no such curve, though single readings can be large or run the other way. Potencies of inconclusive entries are doubtful fits and often do not repeat.
# Target: Nuclear receptor ROR-gamma (Mus musculus) (UniProt P51450)
# Assay: qHTS for inhibitors of ROR gamma transcriptional activity; also: nearly all actives have a fitted effect of over 60% in size
# Settings: Drosophila S2 Gal4-RORgamma UAS-luciferase reporter, 20 h; series mostly up to 53.6 µM
# Procedure, shortened: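 Stable Schneider cell line, Gal4 DNA-binding domain fused to ROR gamma, UAS-luciferase. Cmpd 1 hr RT → CuSO4 700 uM final → 20 hr RT → luciferase reagent 10 min → luminescence.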
# Potency is read from the fitted curve at half-maximal effect.
row,Structure (SMILES),Potency
1,COc1cc2[nH]c(C(=O)NCCc3ccccc3)cc2c(OC)c1OC,inactive
2,CCCN1CCc2c(sc3nc(SCC)n(-c4ccc(OC)cc4)c(=O)c23)C1,inactive
3,COc1ccc(CN(C2CCCCC2C)S(=O)(=O)c2ccc(S(=O)(=O)N(C)C)cc2)cc1OC (stereo not given),inactive
4,C/C(=N/NC(=O)c1ccccc1O)c1ccc(N2C(=O)C3CCCCC3C2=O)cc1 (stereo not given),active: 12.6 µM
5,Fc1ccc2nc3n(c2c1F)CCCCCC3,active: 11.2 µM
6,COC(=O)c1ccccc1NC(=S)NC(NC(=O)c1ccccc1[N+](=O)[O-])C(Cl)(Cl)Cl (stereo not given),active: 12.6 µM
7,CN(C)S(=O)(=O)Nc1ccc(Br)cc1F,inactive
8,Cc1nn(Cc2ccc(Cl)cc2)c(C)c1NC(=O)c1c(-c2ccccc2)noc1C,"inconclusive: 35.5 µM [activator, single point]"
9,O=C(Nc1nc(-c2ccccc2)cs1)C1CCCO1 (stereo not given),"inconclusive: 6.31 µM [activator, partial curve]"
10,COc1ccc2nc(NC(=O)C3CCCN(S(=O)(=O)c4c(C)noc4C)C3)sc2c1 (stereo not given),"inconclusive: 3.98 µM [activator, partial curve, poor fit]"
11,CCOc1ccc(NC(=O)C2CCCN(c3c(CC)c(C)nc4ncnn34)C2)cc1 (stereo not given),"inconclusive: 11.2 µM [activator, partial curve]"
12,CN(C)Cc1c(C(=O)N/N=C/C2CC=CCC2)nnn1-c1nonc1N (stereo not given),inactive
13,COc1ccc(NC(=O)c2nc[nH]c2C(=O)N2CCN(C(=O)OC(C)(C)C)CC2)cc1,"inconclusive: 14.1 µM [inhibitor, single point]"
14,COc1cc(NS(=O)(=O)c2ccc(NC(=O)c3ccc(Cl)cc3Cl)cc2)ncn1,"inconclusive: 35.5 µM [activator, single point]"
15,Cc1ccc(Nc2n[nH]c(C)c2[N+](=O)[O-])c(C)c1,"inconclusive: 2.82 µM [activator, single point]"
16,CC(C)CC(=O)Nc1cc(C(F)(F)F)ccc1N1CCOCC1,"inconclusive: 35.5 µM [inhibitor, single point]"
17,CCCc1c(C(=O)Nc2ccc(F)cc2)cnn1-c1ccccc1,"inconclusive: 2.51 µM [activator, full curve]"
18,CCOc1ccc(-c2c(C(=O)N/N=C(\C)c3cccnc3)nnn2-c2nonc2N)cc1,inactive
19,Cc1nn(-c2ccc(Cl)cc2Cl)c(=O)c2ccccc12,inactive
20,O=c1oc2ccccc2c(O)c1/C=N/c1ccccn1,"inconclusive: 1.58 µM [activator, partial curve]"
21,Cc1ccc(CN2CCNC(=O)C2CC(=O)N(C)C2CCOCC2)cc1 (stereo not given),"inconclusive: 0.355 µM [inhibitor, partial curve]"
22,S=C(NCCCN1CCOCC1)N1CCN(c2nc(-c3ccccc3)cs2)CC1,inactive
23,Cc1cc(C)c(S(=O)(=O)NCc2ccncc2)c(C)c1,"inconclusive: 15.8 µM [inhibitor, single point]"
24,COc1ccc(Br)cc1C1C2C=CCC(C)C2C(=O)N1Cc1ccccc1 (stereo not given),"inconclusive: 5.62 µM [activator, full curve, poor fit]"
25,CCOc1ccc(NC(=S)N=Nc2c(O)[nH]c3ccccc23)cc1,active: 2.24 µM

row,Structure (SMILES),Potency
1,O=C(COC(=O)C1(c2ccc(Cl)cc2)CCCC1)N1CCc2ccccc21,"inconclusive: 11.2 µM [activator, single point]"
2,COc1cc(C2NC(=O)C(C#N)=C(S)N2c2ccccc2)ccc1OC(C)C (stereo not given),active: 10 µM
3,CC(C)NC(=O)Cn1c(SCC(=O)c2ccc(F)cc2)nc2ccccc21,inactive
4,CCn1c(=N)c(C(=O)NC)cc2c(=O)n3cccc(C)c3nc21,inactive
5,CCCn1nnnc1NC(=O)c1ccc(C)cc1Cl,active: 3.55 µM
6,Cc1sc2nc[nH]c(=S)c2c1-c1ccccc1,active: 0.282 µM
7,COc1cccc(C2CC(c3ccccc3)Nc3ncnn32)c1 (stereo not given),"inconclusive: 35.5 µM [inhibitor, single point]"
8,O=C(c1cn(-c2ccccc2)nc1-c1ccc(F)cc1)N1CCCCC1,"inconclusive: 28.2 µM [activator, single point]"
9,N#CC1=C(N)Oc2cc(N)ccc2C1c1ccccc1F (stereo not given),inactive
10,COC(=O)C1(C)C=CC2(CCCCC2)N1C(=O)c1ccccc1 (stereo not given),active: 10 µM
11,c1ccc(C2OC3c4cccc5cccc(c45)C3N2c2ccccc2)cc1 (stereo not given),inactive
12,O=C(Cc1ccccc1)NC(=S)Nc1ccc2oc(-c3ccccc3F)nc2c1,active: 3.98 µM
13,CN(CC(=O)Nc1ccc(C#N)cc1)Cc1ccc(Cl)cc1Cl,"inconclusive: 15.8 µM [activator, single point]"
14,CCOc1ccccc1C1C2C(=O)N(c3ccccc3)C(=O)C2ON1c1ccccc1 (stereo not given),inactive
15,COc1ccc(NS(=O)(=O)c2ccc3c(c2)N(C(C)=O)CC(C)S3)c(OC)c1 (stereo not given),"inconclusive: 8.91 µM [activator, partial curve]"
16,COc1ccc(CN(Cc2cc3ccc(C)cc3[nH]c2=O)Cc2nnnn2C2CCCC2)cc1,inactive
17,COc1ccc(N2CCN(CCNC(=O)c3ccc4nc5ccccc5c(=O)n4c3)CC2)cc1,inactive
18,Cn1cccc1/C=C1\SC(=S)N(NC(=O)c2ccc(F)cc2)C1=O,inactive
19,CCCCCC(=O)N/N=C(\C)c1ccccn1,active: 0.355 µM
20,CN(C)/C=N/C(=S)Nc1ccccc1F,inactive
21,CCC1(C)NC(=O)N(CC(=O)Nc2sc3c(c2C(=O)OC)CCCCC3)C1=O (stereo not given),"inconclusive: 1.26 µM [activator, partial curve, poor fit]"
22,Cc1ccc(S(=O)(=O)NCCCCCC(=O)Nc2ccccc2C)cc1,"inconclusive: 0.112 µM [activator, full curve, poor fit]"
23,COc1cc(OC)cc(-c2nc3nc(C)c(CCC(=O)O)c(C)n3n2)c1,"inconclusive: 6.31 µM [inhibitor, partial curve, poor fit]"
24,COCc1nnc(NC(=O)c2ccccc2Oc2ccccc2)s1,"inconclusive: 5.62 µM [inhibitor, single point]"
25,CCOc1ccc(Nc2nnc(SCc3nc4ccccc4c(=O)[nH]3)s2)cc1,inactive

# Five entries out of the list, sorted by molar mass, largest number first:
row,Structure (SMILES),Potency
14,CCOc1ccccc1C1C2C(=O)N(c3ccccc3)C(=O)C2ON1c1ccccc1 (stereo not given),inactive
25,CCOc1ccc(Nc2nnc(SCc3nc4ccccc4c(=O)[nH]3)s2)cc1,inactive
18,Cn1cccc1/C=C1\SC(=S)N(NC(=O)c2ccc(F)cc2)C1=O,inactive
9,N#CC1=C(N)Oc2cc(N)ccc2C1c1ccccc1F (stereo not given),inactive
19,CCCCCC(=O)N/N=C(\C)c1ccccn1,active: 0.355 µM

# The results go on:

row,Structure (SMILES),Potency
1,CC(/C=N/n1c(-c2cccnc2)n[nH]c1=S)=C\c1ccccc1,"inconclusive: 1.26 µM [inhibitor, full curve, poor fit]"
2,CCc1ccc(C2=CC(c3cc(Br)ccc3F)n3ncnc3N2)cc1 (stereo not given),"inconclusive: 1.78 µM [inhibitor, full curve, poor fit]"
3,CCc1ccccc1NC(=O)COC(=O)C1C2CC3OC(=O)C1C3C2 (stereo not given),"inconclusive: 5.62 µM [activator, single point]"
4,CCCCn1c(SCC(=O)/C(C#N)=C(\C)N)nc2ccccc2c1=O,"inconclusive: 12.6 µM [inhibitor, single point]"
5,Cc1ccc(NC(N)=S)cc1C,"inconclusive: 15.8 µM [inhibitor, single point]"
6,COC(=O)C1=C(C(=O)OC)SC2(S1)C(C(=O)OC)=C(C(=O)OC)SC1=C2c2cccc(C)c2NC1(C)C,active: 5.62 µM
7,CCC(C)(C)NC(=O)C(c1ccc(OC)cc1)N(Cc1ccccc1)C(=O)CCC(=O)Nc1cc(C)on1 (stereo not given),"inconclusive: 14.1 µM [activator, partial curve]"
8,Oc1ccccc1-c1nnc(COc2ccc(Cl)cc2Cl)o1,active: 2.51 µM
9,Cn1c(SCC(=O)Nc2ccccc2C(F)(F)F)nc2c(c1=O)SCC2,inactive
10,O=c1[nH]c(-c2ccc(F)cc2)nc2c1sc(=S)n2-c1ccccc1,"inconclusive: 11.2 µM [activator, partial curve]"
11,Fc1ccc(-c2nn(-c3ccccc3)cc2CNCc2ccccc2)cc1,"inconclusive: 35.5 µM [inhibitor, single point]"
12,C/C(N)=C(/C#N)C(=O)CSc1nnc(-c2ccccc2Br)o1,"inconclusive: 3.98 µM [inhibitor, full curve, poor fit]"
13,CN1CCN(C(c2ccccc2)c2ccccc2)CC1,inactive
14,CC1(C)C2CCC1(CS(=O)(=O)Nc1ccc(S(=O)(=O)NC3CCCCC3)cc1)C(=O)C2 (stereo not given),"inconclusive: 15.8 µM [activator, single point]"
15,COC(=O)[C@@]1(Cc2ccc(F)cc2)[C@H]2c3cc(C(=O)N4CCCC4)n(Cc4ccc(C)c(F)c4F)c3C[C@H]2CN1C(=O)c1ccccc1,inactive
16,CCCOc1ccc(C(=O)NCC(c2cccs2)N(C)C)cc1OC (stereo not given),inactive
17,CC(=O)N(C)c1ccc(NC(=S)Nc2cccc3ccccc23)cc1,"inconclusive: 35.5 µM [inhibitor, single point]"
18,CSc1ccccc1NC(=O)CN(C)Cc1cccc(Cl)c1,inactive
19,COc1ccccc1N1CCN(C(=O)CSc2ccc3c(C)cc(C)nc3n2)CC1,"inconclusive: 17.8 µM [inhibitor, single point]"
20,c1cncc(-c2nc(NCCCN3CCOCC3)c3c4c(sc3n2)CCC4)c1,inactive
21,Cc1ccc(-c2nnc(SCC(=O)Nc3ccc(S(=O)(=O)N4CCCCCC4)cc3)o2)cc1,"inconclusive: 25.1 µM [inhibitor, single point]"
22,Cn1cccc1C(=O)Nc1nc(-c2ccccn2)cs1,active: 1.58 µM
23,CSc1nc2nc3c(c(=O)n2[nH]1)CN(Cc1ccccc1)CC3,inactive
24,Cc1nc2c(ccc3nc(NC(=O)C(c4ccccc4)c4ccccc4)sc32)s1,"inconclusive: 20 µM [inhibitor, single point]"
25,COc1cccc(Nc2nc(-c3sc(NC(=O)CC(C)C)nc3C)cs2)c1,"inconclusive: 35.5 µM [inhibitor, single point]"
